Results on 1 substance are retold here after paper doi:10.1101/2020.11.12.377127.

These are yes or no findings as the source states them, for the method shown. Binding seen in cells or lysates may run through a third protein. For part of these data: Binding can be weak; no strength is given. For part of these data: Sequences can lack the tags named with a protein.

Test in all cases: co-IP
For test [1], the target named is T1, Halo-V5-tagged YTHDF2 fragment F4 (aa 167-579) (human) (UniProt Q9Y5A9).
T1 sequence: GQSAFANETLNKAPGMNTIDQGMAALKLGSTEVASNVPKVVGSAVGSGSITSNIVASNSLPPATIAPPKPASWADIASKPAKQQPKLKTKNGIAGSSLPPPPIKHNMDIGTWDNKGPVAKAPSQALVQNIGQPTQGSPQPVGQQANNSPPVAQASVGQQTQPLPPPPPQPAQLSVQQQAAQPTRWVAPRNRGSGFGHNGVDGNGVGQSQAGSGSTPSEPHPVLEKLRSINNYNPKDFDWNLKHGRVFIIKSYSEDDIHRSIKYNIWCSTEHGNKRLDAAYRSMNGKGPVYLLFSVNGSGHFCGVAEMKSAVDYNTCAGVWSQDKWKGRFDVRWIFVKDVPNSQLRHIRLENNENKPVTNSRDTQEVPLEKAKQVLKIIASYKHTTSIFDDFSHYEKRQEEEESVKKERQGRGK

The target of test [2] is Halo-V5-tagged WT YTHDF2 (human) (UniProt Q9Y5A9).
Test [3] addresses T2, Halo-V5-tagged YTHDF2 fragment F5 (aa 368-579) (human) (UniProt Q9Y5A9).
T2 sequence: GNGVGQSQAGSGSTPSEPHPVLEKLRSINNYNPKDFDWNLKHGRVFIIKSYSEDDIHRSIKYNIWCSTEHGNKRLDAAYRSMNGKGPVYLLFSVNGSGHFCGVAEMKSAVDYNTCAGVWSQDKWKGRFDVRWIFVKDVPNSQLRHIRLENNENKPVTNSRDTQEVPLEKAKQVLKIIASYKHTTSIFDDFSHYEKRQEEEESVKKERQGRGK

The target of test [4] is T3, Halo-V5-tagged YTHDF2 fragment F3 (aa 167-367) (human) (UniProt Q9Y5A9).
T3 sequence: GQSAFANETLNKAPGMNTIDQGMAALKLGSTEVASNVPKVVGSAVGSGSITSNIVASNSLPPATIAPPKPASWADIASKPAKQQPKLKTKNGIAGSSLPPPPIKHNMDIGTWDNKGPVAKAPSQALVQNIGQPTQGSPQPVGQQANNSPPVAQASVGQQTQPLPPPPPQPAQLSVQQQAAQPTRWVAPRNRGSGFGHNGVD

In test [5] the target is T4, Halo-V5-tagged YTHDF2 fragment F2 (aa 1-367) (human) (UniProt Q9Y5A9).
T4 sequence: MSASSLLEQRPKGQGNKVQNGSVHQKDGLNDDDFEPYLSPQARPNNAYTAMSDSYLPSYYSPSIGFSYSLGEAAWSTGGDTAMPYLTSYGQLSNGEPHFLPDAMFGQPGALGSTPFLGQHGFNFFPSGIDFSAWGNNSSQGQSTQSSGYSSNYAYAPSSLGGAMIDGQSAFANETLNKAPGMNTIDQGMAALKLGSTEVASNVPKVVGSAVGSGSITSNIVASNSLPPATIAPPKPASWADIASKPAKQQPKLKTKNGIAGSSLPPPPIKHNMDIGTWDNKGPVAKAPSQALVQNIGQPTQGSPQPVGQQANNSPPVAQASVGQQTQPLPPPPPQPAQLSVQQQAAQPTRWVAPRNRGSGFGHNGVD

Test [6] addresses T5, Halo-V5-tagged YTHDF2 fragment F1 (aa 1-166) (human) (UniProt Q9Y5A9).
T5 sequence: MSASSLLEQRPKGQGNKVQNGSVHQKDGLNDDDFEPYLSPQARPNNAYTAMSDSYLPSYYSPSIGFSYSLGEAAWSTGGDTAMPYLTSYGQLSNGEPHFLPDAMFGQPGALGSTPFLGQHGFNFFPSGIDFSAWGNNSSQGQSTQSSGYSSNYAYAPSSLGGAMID

On to “HA-tagged CNOT1 SH domain (from UniProt A5YKK6) (domain or fragment)”, for which the binding result is “binds” in test [1]; “binds” in test [2]; “binds” in test [3]; “no binding” in test [4]; “binds” in test [5]; “no binding” in test [6].
